Data reported in patent US20050232921A1.
Changes are numbered by the printed parent chain. No constants are given. Whether binding was seen depends on the method and setting. Some entries that bind do so weakly or less than the wild type.

Sequences of proteins named here, by UniProt entry; tags and fusion partners are left off. A change or cut given only in a name is not applied to a line headed by its entry.
UniProt P49767: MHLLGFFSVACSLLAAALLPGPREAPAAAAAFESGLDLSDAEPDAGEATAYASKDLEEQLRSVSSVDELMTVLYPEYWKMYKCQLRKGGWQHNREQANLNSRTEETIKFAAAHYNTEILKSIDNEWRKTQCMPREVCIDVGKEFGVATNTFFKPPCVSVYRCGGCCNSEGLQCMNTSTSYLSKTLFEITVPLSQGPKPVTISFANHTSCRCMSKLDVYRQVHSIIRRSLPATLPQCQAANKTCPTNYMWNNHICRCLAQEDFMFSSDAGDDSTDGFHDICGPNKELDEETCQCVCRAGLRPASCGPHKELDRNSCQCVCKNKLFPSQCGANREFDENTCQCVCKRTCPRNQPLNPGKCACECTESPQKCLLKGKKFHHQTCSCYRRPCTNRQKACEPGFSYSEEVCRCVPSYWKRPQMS

B1: 72D09 (scFv)
scFv: EVQLLKSGGGLVQPGGSLRLSCAASGFTFSSYAMSWVRQAPGKGLEWVSAISGSGGSTYYADSVKGRFTISRDNSKNTLYLQMNSLRAEDTAVYYCARDLSAGFFDPWGRGTMVTVSSGGGGSGGGGSGGGGSAQSVLTQPPSSSGTPGQRVTISCSGSSSNIGRHTVSWYQQVPGTAPKLLIYSDDHRPSGVPDRFSASKSGTSASLTITGLQSEDEADYYCAAWDDSLNGPWVFGGGTKLTVLG
B2: 69D09 (scFv)
scFv: EVRLLESGGGLVQPGGSLRLSCAASGFTFRPRAMAWVRQAPGKGLEWVSSISAQGASAYYADSVKGRFTISRDNSKNTLYLQMNSLRAEDTAVYYCARDLSVSGFGPWGRGTMVAVSSGGGGPGGGGSGGGRSALSYELTQPPSSSGTPGQRVTISCSGSSSNIGRHTVSWYQQVPGTAPKLLIYSDDHRPSGVPDRFSASKSGTSASLTITGLQSEDEADYYCAAWDDSLNGPWVFGGGTKLTVLG
B3: 32G10X (scFv)
scFv: QMQLVQSGAEVKKPGSSVKVSCKASGGIFSSYAISWVRQAPGQGLEWMGGIIPRFGTANYAQKFEGRVTITADESTSTAYMELSSLRSEDTAVYYCARDTVKSSGSYPYYNYYYMDVWGQGTLVTVSSSYVLTQPPSVSVSPGQTASITCSGDKLGDKYASWYQQKPGQSPVLVIHQDNKRPSGIPERFSGSNSGNTATLTISGTQAMDEADYYCQAWDSSLGVFGTGTKVTVLG
B4: 30E06X (scFv)
scFv: B3 scFv with T100Q, K102R, S103A, S106N, N111Y
B5: 19B09 (scFv)
scFv: QVQLQESGPGLVKPSQTLSLTCSVSGGSISSRGYYWSWIRQHPGKGLEWIGYIYHNGNTYYNPSLKSRITMSVDTSKNQFSLKLSSVTAADTAVYFCARDKVVTGISGGFDLWGRGTLVTVSSGGGGSGGGGSGGGGSAQAVLTQPSSLSGAPGQRVTISCTGSSSNIGAGYDVHWYQHLPGTAPKLLIYGNNNRPSGVPDRFSGSKSGTSASLTITGLQAEDEADYYCQSDDSLSDSVVFGGGTQLTVLS
B6: 25A07 (scFv)
scFv: EVQLLESGGGLVQPEGSLRLSCAASGFTFSSYAMSWVRQAPGKGLEWVSAISGSGGSTYYADSVKGRFTISRDNSKNTLYLQMNSLRAEDTAVYYCARDLSDSKFDPWGRGSMVTVSSGGGGSGGGGSGGGGSALSYELTQPPSSSGTPGQRVTISCSGSSSNIGRHTVSWYQQVPGTAPKLLIYSDDHRPSGVPDRFSASKSGTSASLTITGLQSEDEADYYCAAWDDSLNGPWVFGGGTKLTVLG
B7: 20G11 (scFv)
scFv: EVQLLESGGGLVQPGGSLRLSCAASGFTFSSYAMSWARQAPGKGLEWVSAISGSGGSTYYADSVKGRFTISRDNSKNTLYLQMNSLRAEDTAVYYCARWVGGNEGSWSDWGQGTLVTVSSGGGGSGGGGSGGGGSALNFMLTQPHSVSESPGKTVTISCTRSGGSIASNYVQWYQQRPGSVPTTLIYEDHKRPSGVPDRFSGSIDSSSNSASLTISGLKTEDEADYYCQSYDTSAWVFGGGTKLTVLG
B8: 16C10 (scFv)
scFv: QMQLVQSGAEVKKPGSSVKVSCKASGGIFSSYAISWVRQAPGQGLEWMGGIIPRFGTANYAQKFEGRVTITADESTSTAYMELSSLRSEDTAVYYCARDQVRASGSYPYYYYYYMDVWGQGTLVTVSSGGGGSGGGGSGGGGSALSYVLTQPPSMSVSPGQTARITCSGDKLGDKYASWYQQKPGQSPVLVIYQDSERPSGIPERFSGSNSGNTATLTIRGTQPLDEADYYCQTWDTSTGVFGGGTQLTVLS
B9: 20G02 (scFv)
scFv: EVQLLESGGGLVQPGGSLRLSCAASGFTFSSYAMSWARQAPGKGLEWVSAISGSGGSTYYADSVKGRFTISRDNSKNTLYLQMNSLRAEDTAVYYCARFSRNSWENWGRGTLVTVSSGGGGSGGGGSGGGGSAQAVVIQEPSFSVSPGGTVTLTCGLSSGSVSTSNYPSWHRQTPGQAPRTLIYNTNTRSSGVPDRFSGSILGNKAALTITGAQADDESDYYCALHMRSGLSVFGGGTKVTVLG
B10: 16B06 (scFv)
scFv: EVQLVETGGGFVRPGGSLRLSCAASGFTFSNYAMTWFRQAPGKGLEWVSDISGDGIGTYNADSVKGRFTISRDNSNSILYLQMNSLRAEDTAVYYCAKDRWYTSGWIFDYWGKGTLVTVSSGGGGSGGGGSGGGGSAQAVLTQPSSMSGAPGQRVTISCTGSSSNIGAGYDVHWYQQLPGTAPKLLIYANNNRPSGVPARFSGSKSGTSAYLAIAGLQAADESDYYCQSYDSYLGDSVFGGGTKLTV

target: human vascular endothelial growth factor 2 (VEGF-2) (human) (UniProt P49767); assay: phage display selection of scFvs; no assay details given

binding, binds:
B1
B2
B3
B4
B5
B6
B7
B8
B9
B10
